Screen size: about 53,000 sequences; about 3,700 (7%) were called active.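 How the source made its calls: active means gene knockdowns whose robust z-score for IL-1 alpha signal is at least 2 or at most -2, so actives lie on both sides; inactive means the rest.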 The list shows a part of the results.
experiment: Components of the Cytosolic LPS Sensing Pathway: Gene Identification via Genome-wide siRNA Screen; conditions: RAW264.7 macrophages, IL-1a HTRF, actives lie on both sides, screened at 100 nM (by protocol), cells primed 5 h with Pam3CSK4 first;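 further: robust z of the log signal after scaling to non-targeting control siRNA wells of the plate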
In short: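 Mouse macrophage line RAW264.7 is transfected with siRNA (100 nM final), grown 48h, primed with TLR ligand Pam3CSK4 5 h and given intracellular LipidA 24 h. IL-1a in supernatant is read by HTRF and viability by luminescence.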

z-score, active:
GGCAGAUGUGUUUGCUUUUTT against Pbk 3.51, GGAAAUAAAGUGAGUUUUGTT against Etaa1 4.95, GGACAAGUGUCAGAUAUCATT against Asah2 -2.02, GGAAGAGAGGGUGAAUAUGTT against Tmem41b -2.56, GAUGCACACGUGGGAAGACTT against Cdpf1 2.25, GGAGUACAUGACCACAGAUTT against Lncpint -2.06

z-score, inactive:
GGUCCUGAAGAAAUCCGAUTT against Clybl -0.489, GGGACAUAUUGUUUCCCUUTT against Tmco5b 0.777, GGACACUGUGAUGUGAGACTT against Mier2 -0.0346, GGUCUAUUCUGUUGAGUAATT against Glud1 -0.641, CCUUUACCGUAUCAGCGAGTT against Rassf6 -0.747, GGGCUCCUUCCUUGAAAAGTT against Dclre1c 0.365, GCUAGAUGCAAAAUAUUCATT against Lbr -1.98, GGAGUUCAAGCAGAACAUUTT against Tpd52 -0.643, GUAGACCGAAACCACUUCCTT against Alyref2 -0.669, GCAGAGCUCUGUUAAGAAGTT against Pbp2 -0.31, GCCUGACGGCACGUAUGUATT against Acox1 0.527, GCAGAGCGGGAUUUCAUUCTT against Sh3glb2 -1.23, GCCUAAUGCCAACUCACAATT against Samd7 -1.49, GGCAUUUAUUACUACCUGATT against Lancl1 0.754, GGGAACCAUGAACAAUGUGTT against Shisa2 1.66, CCAGAGAGGUUUAUAAGUCTT against Zfp655 0.317, CCCAAGUGCUAACCUAAUATT against Mtfp1 0.218, GCUGGUAUCAGGAAUACCUTT against Cacna1e 0.497, GGUUGGCUUCCUUAUCUUGTT against Cyp7b1 -1.02, GGAAACCCACAAAAAACAATT against Klhl26 0.269, GGAAGGACAGCCUUUUGAUTT against Cyp2j13 0.0584, CGACCAAUUAUAGUUUAUGTT against Zranb1 0.806, GGAAGAAUACCAAAAGGUUTT against Msra -1.88, GGAAGUGACAGCUUUCGUCTT against Tmbim1 0.0257
